Assay: In vivo addition of NHS-rhodamine to an isolated carotid artery segment
Design: species or system New Zealand rabbits
Conditions: 100 μl of 500 μM incubated in 1-cm arterial incubation chamber for 3 minutes, then washed

Substance	fluorescence of treated arteries
Rhodamine Green™-X, succinimidyl ester, hydrochloride mixed isomers [NHS-Rhodamine]	dramatic levels of fluorescence
Rhodamine	little fluorescence over background

— patent US6706892B1, “Pulmonary delivery for bioconjugation” (priority 1999, dated 2004)
